Test results taken from PubChem BioAssay AID540256 (National Center for Advancing Translational Sciences (NCATS), 2011).
Values joined by “and” are separate entries in the source; they are usually repeats but may differ in a detail not shown here. Equal entries are not always repeated. Screen size: about 300,000 compounds; about 3,700 (1.2%) were called active. The shares of active, inactive and inconclusive entries below differ from those in the screen. The call rests on the fitted dose curve; tested in HEK293 cells. Potencies of inconclusive entries are doubtful fits and often do not repeat.

Assay: qHTS for Inhibitors of binding or entry into cells for Lassa Virus; further: nearly all actives have a fitted effect of over 50% in size
Conditions: Lassa virus pseudotype entry inhibition, cell reporter; activity change, negative = inhibition: at 37.9 µM (top of the series) unless noted
On the % scale 0 is the no-effect control and ±100 the full control effect; potency means the concentration at half of the fitted maximal effect.

| SMILES | Potency | activity change, negative = inhibition |
| --- | --- | --- |
| CCN1CCN(c2ccc(S(=O)(=O)N3CCCCC3)cc2NC(=O)COc2cc(C)ccc2Cl)CC1 | inconclusive: 28.2 µM [inhibitor, single point] |  |
| Cc1cccc(-n2ccnc2CN2CCN(C(C)C)C(CCO)C2)c1 (centres undefined) |  | inactive: -0.154% |
| O=C1CCCCC1Sc1nnc(-c2ccc3c(c2)OCO3)o1 (centres undefined) | inconclusive: 4.47 µM [inhibitor, full curve, poor fit] |  |
| CCN(CC)c1ccc(CN(C(=O)c2ccco2)C2CCS(=O)(=O)C2)cc1 (centres undefined) | inconclusive: 23.1 µM [inhibitor, partial curve, poor fit] |  |
| CN(C)c1ccc(CN(CC2CCCO2)C(=O)c2cc3ccccc3o2)cc1 (centres undefined) | inconclusive: 7.08 µM [inhibitor, partial curve] |  |
| CC(=O)OC1CC(OC2C(O)CC(OC3C(O)CC(OC4CCC5(C)C(CCC6C5CCC5(C)C(C7=CC(=O)OC7)C(O)CC65O)C4)OC3C)OC2C)OC(C)C1OC1OC(CO)C(O)C(O)C1O (centres undefined) | inconclusive: 0.398 µM [inhibitor, full curve, poor fit] |  |
| COCCCn1c(-c2cccc(Cl)c2)nc2c1c(=O)[nH]c(=O)n2Cc1ccccc1 | inconclusive: 3.55 µM [inhibitor, partial curve, poor fit] |  |
| Cc1ccc(NC(=O)CS(=O)CC(=O)NCCCc2ccccc2)cc1Cl (centres undefined) | inconclusive: 3.66 µM [inhibitor, partial curve, poor fit] |  |
| Cc1ccc(CCNC(=O)c2sc3ncccc3c2-n2c(C)ccc2C)cc1 |  | inactive: -9.97% [at 46.1 µM] |
| COc1ccc(-c2nn(C)c(=O)c3ccccc23)cc1NC(=O)COc1ccccc1 | inconclusive: 32.6 µM [inhibitor, single point] |  |
| Nc1[nH]n2c(=O)cc(-c3ccccc3)nc2c1N=Nc1ccccc1 | inconclusive: 35.5 µM [inhibitor, single point] |  |
| CCOC(=O)c1ccc(N2C(=O)CC(N3CCOCC3)C2=O)cc1 (centres undefined) | inconclusive: 0.259 µM [activator, single point] |  |
| CCOc1ccc(NC(=O)CC2C(=O)N(c3ccccc3)C(=O)N2CCc2cccs2)cc1 (centres undefined) | inconclusive: 10 µM [inhibitor, partial curve, poor fit] and inconclusive: 17.8 µM [inhibitor, partial curve, poor fit] |  |
| Nc1nonc1-n1nnc(C(=O)N/N=C/c2ccccc2Br)c1CN1CCCC1 | inconclusive: 0.316 µM [inhibitor, full curve, poor fit] |  |
| Cc1cccc(NC(=O)c2ccccc2O)c1C |  | inactive: 10.8% |
| CNC(=O)C(C)c1ncc(C(F)(F)F)cc1Cl (centres undefined) |  | inactive: -4.94% |
| COc1ccc(-c2cn3nc(N4CCC(C(=O)Nc5ccccc5OC)CC4)sc3n2)cc1 |  | inactive: 23.1% [at 46.1 µM] |
| CC(C)(C)CC(=O)Nc1ccc(S(=O)(=O)N2CCCC2)cc1 | inconclusive: 15.8 µM [inhibitor, single point] |  |
| COc1ccc(/C=N/NC(=O)c2ccc(NC(=O)c3ccccc3Br)cc2)cc1 | active: 18.4 µM |  |
| C=CCSc1cc(C)nc2c(-c3ccccc3)c(C)nn12 |  | inactive: 2.45% |
| Cc1ccc2cc3cc(C(=O)N4CCN(c5ccc(Cl)cc5)CC4)oc3nc2c1 |  | inactive: -3.93% [at 46.1 µM] |
| CCNC(=O)c1ccc(-n2nc(C)cc2-c2ccccc2)cc1 |  | inactive: 0.467% |

Single entries from above:
Entry of COc1ccc(/C=N/NC(=O)c2ccc(NC(=O)c3ccccc3Br)cc2)cc1 under Potency: active: 18.4 µM
Entry of CNC(=O)C(C)c1ncc(C(F)(F)F)cc1Cl (centres undefined) under activity change, negative = inhibition: inactive: -4.94%
Entry of CCN(CC)c1ccc(CN(C(=O)c2ccco2)C2CCS(=O)(=O)C2)cc1 (centres undefined) under Potency: inconclusive: 23.1 µM [inhibitor, partial curve, poor fit]

Remaining list, next part

| SMILES | Potency | activity change, negative = inhibition |
| --- | --- | --- |
| O=C(c1ccc(NS(=O)(=O)c2ccc(F)cc2)cc1)N1CCN(c2ccccc2O)CC1 | inconclusive: 22.4 µM [inhibitor, single point] |  |
| CN(C)/C=C/C(=O)C(Cl)(Cl)Cl |  | inactive: 2.23% [at 46.1 µM] |
| CCC(OC(=O)C(C)N1C(=O)C(=O)c2ccccc21)C(=O)Nc1ccccc1OC (centres undefined) | inconclusive: 11.6 µM [inhibitor, partial curve, poor fit] |  |
| O=C(NCc1ccccc1)c1ccc(-c2ccccc2F)o1 | inconclusive: 29.1 µM [inhibitor, single point] |  |
| Cc1ccc(N(CC(=O)N2CCN(c3cccc(Cl)c3)CC2)S(=O)(=O)c2c(C)noc2C)cc1 | inconclusive: 11.2 µM [inhibitor, partial curve, poor fit] |  |
| COc1ccc(OC)c(N(CC(=O)N2CCN(c3cc(Cl)ccc3C)CC2)S(C)(=O)=O)c1 | inconclusive: 29.1 µM [inhibitor, single point] |  |
| Cc1nn(C(C)(C)C)c(OC(=O)c2ccc3c(c2)OCO3)c1Sc1ccccc1 | inconclusive: 31.6 µM [inhibitor, single point] |  |
| Cn1c(=O)c([N+](=O)[O-])c(Cl)c2ccccc21 | inconclusive: 35.5 µM [inhibitor, single point] |  |
| COc1ccc(S(=O)(=O)N2CCOCC2)cc1C(=O)NCC(c1ccccc1)c1ccccc1 | inconclusive: 20 µM [inhibitor, partial curve, poor fit] |  |
| Cc1nc2ccc(NC(=O)c3cnc(Cl)c(Cl)c3)cc2s1 | inconclusive: 11.2 µM [activator, single point] |  |
| O=C(Cc1cccs1)N1CCCC(c2nc3c(nnn3Cc3ccccc3Cl)c(=O)[nH]2)C1 (centres undefined) |  | inactive: -11.4% |
| Cc1ccc(C)c(N2CCN(C(=O)c3cnn(C(C)(C)C)c3C3CCN(C(=O)OC(C)(C)C)CC3)CC2)c1 | inconclusive: 35.5 µM [inhibitor, single point] |  |
| COc1ccc(NC(=O)C/C(C)=N/NC(=O)c2ccncc2)c([N+](=O)[O-])c1 |  | inactive: 6.27% [at 46.1 µM] |
| COc1ccccc1N1CCN(C(=S)Nc2ccc(F)cc2)CC1 |  | inactive: -33.6% [at 46.1 µM] |
| Cc1ccc(Cl)cc1-n1nnc(-c2nsc(NC(=O)c3ccccc3Cl)n2)c1C | inconclusive: 3.16 µM [activator, full curve, poor fit] |  |
| CCOC(=O)CNC(=O)c1sc(NC(=O)c2cccc(F)c2)nc1C | inconclusive: 29.1 µM [activator, single point] |  |
| O=C(Nc1ccccc1Cl)c1cc(S(=O)(=O)N2CCCCC2)ccc1N1CCOCC1 | inconclusive: 25.9 µM [inhibitor, partial curve, poor fit] |  |
| C[n+]1c(-c2ccccc2)cc(CCCCc2cc(-c3ccccc3)[n+](C)c(-c3ccccc3)c2)cc1-c1ccccc1 |  | inactive: -19.3% |
| CC1CC(=O)Nc2ccccc2N1C(=O)CSc1nnnn1C (centres undefined) |  | inactive: 13.7% |
| COc1ccc(NC(=O)CSC2CCCCC2)cc1 | inconclusive: 6.51 µM [activator, single point] |  |
| O=C(c1ccc(-c2nc3ccccc3s2)o1)N1CCN(c2ccccc2O)CC1 | inconclusive: 5.62 µM [inhibitor, full curve, poor fit] |  |
| N#Cc1c[nH]n2c(=O)cc(Cc3ccccc3)nc12 | inconclusive: 0.082 µM [inhibitor, full curve, poor fit] |  |

| SMILES | Potency | activity change, negative = inhibition |
| --- | --- | --- |
| COc1ccc(NC(=O)C(Cc2c[nH]c3ccccc23)NC(=O)OC(C)(C)C)cc1 (centres undefined) | inconclusive: 10 µM [inhibitor, partial curve, poor fit] |  |
| CCCC(C(=O)Nc1cccc(S(=O)(=O)N2CCCC2)c1)c1ccccc1 (centres undefined) | active: 7.08 µM |  |
| CCN(CC)C(=O)c1ccc2c(c1)N(Cc1c(F)cccc1Cl)C(=O)c1ccccc1S2 | inconclusive: 35.5 µM [inhibitor, single point] |  |
| COc1ccc(N(Cc2ccccc2)S(=O)(=O)c2cccc(C(=O)NC3=NCCS3)c2)cc1 |  | inactive: -13.8% |
| Cc1nc(NCCc2cnc[nH]2)c2oc3ccccc3c2n1 |  | inactive: 10.6% |
| Cc1ccc(C(=O)OCC(=O)N2CC(C)OC(C)C2)cc1 (centres undefined) | inconclusive: 22.4 µM [activator, partial curve, poor fit] |  |
| COc1cccc(-c2nnc(-c3ccc(C(F)(F)F)cc3)o2)c1OC | inconclusive: 32.6 µM [activator, partial curve, poor fit] |  |
| Cn1c(=O)c2c(nc(NCCc3ccccc3)n2Cc2ccccc2)n(C)c1=O | inconclusive: 20.6 µM [inhibitor, single point] |  |
| CC1CCN(C(=O)C2CCCN(c3ncnc4c3nc3n4CCCCC3)C2)CC1 (centres undefined) | inconclusive: 35.5 µM [inhibitor, single point] |  |
| CC(C)C(NS(=O)(=O)c1ccc2c(c1)oc(=O)n2C)C(=O)N1CCN(c2cccc(Cl)c2)CC1 (centres undefined) | inconclusive: 22.4 µM [inhibitor, single point] |  |
| COc1cc2[nH]c(=O)n(CCCCCC(=O)N3CC=C(c4ccccc4)CC3)c(=O)c2cc1OC | inconclusive: 25.9 µM [inhibitor, single point] |  |
| CC(=O)c1ccc(NC(=O)C2CCN(S(=O)(=O)c3cccc4nonc34)CC2)cc1 |  | inactive: 11.2% |
| CCOC(=O)Cc1c(C)nc2c(-c3ccc(Cl)cc3)c(C)[nH]n2c1=O | inconclusive: 32.6 µM [inhibitor, single point] |  |
| C/C(=N\NC(N)=O)c1cccc(Cl)c1 | inconclusive: 1.41 µM [inhibitor, full curve, poor fit] |  |
| C(=C\c1ccco1)/c1ccc2ccccc2n1 | inconclusive: 11.2 µM [inhibitor, single point] |  |
| O=C(NC(=S)Nc1ccc2c(c1)OCCO2)c1cccc(Br)c1 |  | inactive: 3.18% |
| COc1ccccc1Nc1nnc(SCC(=O)NC(=O)Nc2ccc3c(c2)OCCO3)s1 | inconclusive: 35.5 µM [inhibitor, single point] |  |
| CCOC(=O)C(=CNc1cc(C)ccn1)C(=O)OCC | inconclusive: 5.62 µM [activator, single point] |  |
| Cc1cccc(Nc2nnc(SCC(=O)NC(=O)Nc3ccc4c(c3)OCCO4)s2)c1 | inconclusive: 35.5 µM [inhibitor, single point] |  |
| CCOc1cccc2sc(N3CCN(C(=O)c4ccc5c(c4)CCCC5)CC3)nc12 | inconclusive: 6.31 µM [activator, full curve] |  |

Of the compounds above, 2 have a nitro group on carbon.

| SMILES | Potency | activity change, negative = inhibition |
| --- | --- | --- |
| Cn1c(=O)c([N+](=O)[O-])c(Cl)c2ccccc21 | inconclusive: 35.5 µM [inhibitor, single point] |  |
| COc1ccc(NC(=O)C/C(C)=N/NC(=O)c2ccncc2)c([N+](=O)[O-])c1 |  | inactive: 6.27% [at 46.1 µM] |
